{
  "source": "paper PMC4836378",
  "about": "(Journal of medicinal chemistry, 2016)",
  "key": {"[1]": {"test_system": "atRA metabolism in HepG2 cells", "conditions": "HepG2, 100 nM atRA + 1 μM compound versus 100 nM atRA alone, 24 hour"}, "RARs in HepG2 cells": {"test_system": "RARs in HepG2 cells", "assay": "Induction of RARβ and CYP26A1 mRNA in HepG2 cells", "type": "cell-based, human"}},
  "data": [
    {"molecule": "CC1(C)CCC(C)(C)c2cc(C3(c4ccc(CCC(=O)O)cc4)SCCS3)ccc21", "note": "[Compound 30, 3-{4-[2-(5,5,8,8-Tetramethyl-5,6,7,8-tetrahydronaphthalen-2-yl)-1,3-dithiolan-2-yl]phenyl}propanoic acid]", "values": [
      {"measurement": "Increase in atRA concentration in the media", "setting": "[1]", "result": "approximately 9 fold"},
      {"measurement": "Activation of RARs (induction of CYP26A1 and RARβ mRNA)", "setting": "RARs in HepG2 cells", "result": "none of the three compounds resulted in activation"},
      {"measurement": "Magnitude of induction of RARβ and CYP26A1 mRNA compared to atRA treatment alone", "setting": "RARs in HepG2 cells", "result": "significantly increased"}
    ]}
  ]
}
